These results are taken from article PMC7058038.

Protein sequences, listed by entry. Tags and fused reporters are not part of them.
UniProt Q16254: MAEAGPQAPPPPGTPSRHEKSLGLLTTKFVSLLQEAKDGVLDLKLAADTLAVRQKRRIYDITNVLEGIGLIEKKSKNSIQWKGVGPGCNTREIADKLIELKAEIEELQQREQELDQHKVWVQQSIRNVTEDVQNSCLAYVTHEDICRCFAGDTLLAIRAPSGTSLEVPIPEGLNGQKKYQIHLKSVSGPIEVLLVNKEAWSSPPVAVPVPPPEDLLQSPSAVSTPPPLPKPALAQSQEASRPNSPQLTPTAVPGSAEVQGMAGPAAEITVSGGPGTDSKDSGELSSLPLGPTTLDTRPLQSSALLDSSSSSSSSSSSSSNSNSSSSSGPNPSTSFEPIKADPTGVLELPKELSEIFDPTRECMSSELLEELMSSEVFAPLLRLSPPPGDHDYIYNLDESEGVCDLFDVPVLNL
UniProt A0AVK6: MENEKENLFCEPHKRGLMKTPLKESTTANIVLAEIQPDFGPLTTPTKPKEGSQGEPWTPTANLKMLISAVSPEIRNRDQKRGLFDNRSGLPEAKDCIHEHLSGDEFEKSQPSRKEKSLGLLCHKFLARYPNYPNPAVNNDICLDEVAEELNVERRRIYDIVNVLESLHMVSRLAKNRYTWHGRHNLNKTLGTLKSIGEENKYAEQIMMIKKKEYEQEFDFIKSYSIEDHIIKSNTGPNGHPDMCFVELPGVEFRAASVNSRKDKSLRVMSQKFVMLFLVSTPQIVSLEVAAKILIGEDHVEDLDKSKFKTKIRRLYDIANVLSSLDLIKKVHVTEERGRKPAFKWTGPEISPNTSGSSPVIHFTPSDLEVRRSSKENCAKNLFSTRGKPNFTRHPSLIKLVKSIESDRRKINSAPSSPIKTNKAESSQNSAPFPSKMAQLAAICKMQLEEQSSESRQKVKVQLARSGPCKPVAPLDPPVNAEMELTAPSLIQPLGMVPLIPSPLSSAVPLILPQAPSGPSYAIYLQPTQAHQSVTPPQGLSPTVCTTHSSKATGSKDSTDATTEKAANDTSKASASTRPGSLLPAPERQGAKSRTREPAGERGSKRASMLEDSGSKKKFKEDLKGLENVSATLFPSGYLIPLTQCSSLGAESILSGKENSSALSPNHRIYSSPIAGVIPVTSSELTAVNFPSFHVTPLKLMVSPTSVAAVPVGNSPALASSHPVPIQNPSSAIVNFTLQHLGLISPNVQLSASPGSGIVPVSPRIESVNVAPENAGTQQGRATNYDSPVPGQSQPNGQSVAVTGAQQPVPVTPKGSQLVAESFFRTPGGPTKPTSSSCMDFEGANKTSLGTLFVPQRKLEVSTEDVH
UniProt Q01094: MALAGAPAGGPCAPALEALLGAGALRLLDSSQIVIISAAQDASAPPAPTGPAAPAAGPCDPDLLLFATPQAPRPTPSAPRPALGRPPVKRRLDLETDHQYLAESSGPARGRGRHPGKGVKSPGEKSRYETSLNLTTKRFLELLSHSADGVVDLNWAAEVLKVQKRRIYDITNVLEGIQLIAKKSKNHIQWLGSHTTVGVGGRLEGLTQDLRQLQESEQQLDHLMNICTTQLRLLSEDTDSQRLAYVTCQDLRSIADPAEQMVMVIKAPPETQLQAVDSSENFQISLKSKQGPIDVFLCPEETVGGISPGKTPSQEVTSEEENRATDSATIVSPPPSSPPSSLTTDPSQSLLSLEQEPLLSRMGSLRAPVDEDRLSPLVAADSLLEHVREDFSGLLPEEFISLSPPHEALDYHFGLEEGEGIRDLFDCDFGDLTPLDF

Results are given in words; binding and its absence hold for the method and conditions named. In cells and extracts the contact can be indirect. Some binding calls cover weakened binding; strength is not graded here. Where a sequence is shown, tags or fusion partners need not be part of it.

Assay [1] concerns the target T1, FLAG-tagged FBXL3 (human) (UniProt Q9UKT7).
T1 sequence: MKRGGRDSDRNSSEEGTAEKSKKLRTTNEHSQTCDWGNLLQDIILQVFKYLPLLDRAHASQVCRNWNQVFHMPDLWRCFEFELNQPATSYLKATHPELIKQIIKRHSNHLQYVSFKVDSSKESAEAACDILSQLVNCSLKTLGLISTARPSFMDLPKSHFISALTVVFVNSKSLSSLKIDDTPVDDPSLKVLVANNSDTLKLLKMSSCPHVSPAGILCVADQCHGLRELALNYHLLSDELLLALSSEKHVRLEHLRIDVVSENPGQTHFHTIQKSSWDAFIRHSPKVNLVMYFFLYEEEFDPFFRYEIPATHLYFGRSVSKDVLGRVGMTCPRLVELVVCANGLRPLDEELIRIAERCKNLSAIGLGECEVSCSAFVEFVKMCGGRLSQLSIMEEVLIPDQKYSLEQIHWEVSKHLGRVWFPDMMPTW
Briefly: co-IP; FLAG-tagged FBXL3 as bait on anti-Flag M2 agarose beads; HEK293T whole cell extracts (1% TX-100, 50 mM HEPES pH 7.4, 138 mM KCl, 4 mM NaCl); E2F1, E2F4 or E2F8 co-expressed with or without CRY1 and/or CRY2; immunoblot. On the technique in general: A western blot detects proteins with antibodies after separation by electrophoresis.

The next assay concerns the target FLAG-tagged E2F4 (human) (UniProt Q16254). Briefly: co-IP; FLAG-tagged E2F1, E2F4 or E2F8 as bait on anti-Flag M2 agarose beads; HEK293T whole cell extracts (1% TX-100, 50 mM HEPES pH 7.4, 138 mM KCl, 4 mM NaCl); FBXL3 co-expressed with or without CRY1 or CRY2; immunoblot.
Another assay addresses FLAG-tagged E2F8 (human) (UniProt A0AVK6). The assay is described as above.
A further assay has as its target FLAG-tagged E2F1 (human) (UniProt Q01094). The description is as above.

For the molecule “E2F4 (co-expressed with FLAG-tagged FBXL3) (from UniProt Q16254 1-413)”, the binding result in assay [1] is on record as “binds”.

B1: CRY1 (protein, UniProt P97784 1-606)
chain: MGVNAVHWFRKGLRLHDNPALKECIQGADTIRCVYILDPWFAGSSNVGINRWRFLLQCLEDLDANLRKLNSRLFVIRGQPADVFPRLFKEWNITKLSIEYDSEPFGKERDAAIKKLATEAGVEVIVRISHTLYDLDKIIELNGGQPPLTYKRFQTLVSKMEPLEMPADTITSDVIGKCMTPLSDDHDEKYGVPSLEELGFDTDGLSSAVWPGGETEALTRLERHLERKAWVANFERPRMNANSLLASPTGLSPYLRFGCLSCRLFYFKLTDLYKKVKKNSSPPLSLYGQLLWREFFYTAATNNPRFDKMEGNPICVQIPWDKNPEALAKWAEGRTGFPWIDAIMTQLRQEGWIHHLARHAVACFLTRGDLWISWEEGMKVFEELLLDADWSINAGSWMWLSCSSFFQQFFHCYCPVGFGRRTDPNGDYIRRYLPVLRGFPAKYIYDPWNAPEGIQKVAKCLIGVNYPKPMVNHAEASRLNIERMKQIYQQLSRYRGLGLLASVPSNSNGNGGLMGYAPGENVPSCSSSGNGGLMGYAPGENVPSCSGGNCSQGSGILHYAHGDSQQTHSLKQGRSSAGTGLSSGKRPSQEEDAQSVGPKVQRQSSN
As to B1, in the assay with FLAG-tagged E2F4 (human), the binding entry was “binds”.

B2: CRY2 (protein, UniProt Q9R194 1-592)
chain: MAAAAVVAATVPAQSMGADGASSVHWFRKGLRLHDNPALLAAVRGARCVRCVYILDPWFAASSSVGINRWRFLLQSLEDLDTSLRKLNSRLFVVRGQPADVFPRLFKEWGVTRLTFEYDSEPFGKERDAAIMKMAKEAGVEVVTENSHTLYDLDRIIELNGQKPPLTYKRFQALISRMELPKKPAVAVSSQQMESCRAEIQENHDDTYGVPSLEELGFPTEGLGPAVWQGGETEALARLDKHLERKAWVANYERPRMNANSLLASPTGLSPYLRFGCLSCRLFYYRLWDLYKKVKRNSTPPLSLFGQLLWREFFYTAATNNPRFDRMEGNPICIQIPWDRNPEALAKWAEGKTGFPWIDAIMTQLRQEGWIHHLARHAVACFLTRGDLWVSWESGVRVFDELLLDADFSVNAGSWMWLSCSAFFQQFFHCYCPVGFGRRTDPSGDYIRRYLPKLKGFPSRYIYEPWNAPESVQKAAKCIIGVDYPRPIVNHAETSRLNIERMKQIYQQLSRYRGLCLLASVPSCVEDLSHPVAEPGSSQAGSISNTGPRALSSGPASPKRKLEAAEEPPGEELTKRARVTEMPTQEPASKDS
As for B2, the binding entry with FLAG-tagged E2F8 (human), with FLAG-tagged E2F4 (human) and with FLAG-tagged E2F1 (human) was “binds” throughout.

B3: FBXL3 (co-expressed with FLAG-tagged E2F proteins) (protein, UniProt Q9UKT7 1-428)
chain: MKRGGRDSDRNSSEEGTAEKSKKLRTTNEHSQTCDWGNLLQDIILQVFKYLPLLDRAHASQVCRNWNQVFHMPDLWRCFEFELNQPATSYLKATHPELIKQIIKRHSNHLQYVSFKVDSSKESAEAACDILSQLVNCSLKTLGLISTARPSFMDLPKSHFISALTVVFVNSKSLSSLKIDDTPVDDPSLKVLVANNSDTLKLLKMSSCPHVSPAGILCVADQCHGLRELALNYHLLSDELLLALSSEKHVRLEHLRIDVVSENPGQTHFHTIQKSSWDAFIRHSPKVNLVMYFFLYEEEFDPFFRYEIPATHLYFGRSVSKDVLGRVGMTCPRLVELVVCANGLRPLDEELIRIAERCKNLSAIGLGECEVSCSAFVEFVKMCGGRLSQLSIMEEVLIPDQKYSLEQIHWEVSKHLGRVWFPDMMPTW
For B3, the binding entry with FLAG-tagged E2F8 (human), in the assay with FLAG-tagged E2F4 (human) and in the assay with FLAG-tagged E2F1 (human) was “binds” each time.
